Results deposited as PubChem BioAssay AID1671195 (Yale University, 2021)

- Aim: 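Genes whose knockdown alters LDL uptake in liver cancer cells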 (primary screen)
- Cell system: human Huh7 hepatoma cells
- Reagents: siRNA pool against human genes, 18 nM
- Duration: about 2 to 2.5 days of knockdown, then 8 h LDL uptake
- Conditions: DiI-labelled LDL at 30 µg/ml for 8 h, in lipoprotein-deficient serum medium
- Detection: 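Per-cell DiI-LDL intensity by automated imaging; well means scaled to the plate median and given as a robust z-score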
- Scale: robust z-score: higher = more LDL uptake after knockdown
- Hit rule: 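a gene counts as active if at least two replicate z-scores exceed ±2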
The whole screen tested about 22,000 reagents; below is an unselected part. In the full data, about 1,510 (6.9%) are marked active. 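Active includes knockdowns raising or lowering LDL uptake; positive z-scores mean more uptake, negative mean less.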 Reagent sequences are not shown.

RPL5P7 — robust z-score, replicate 1 = 1.47; robust z-score, replicate 2 = 0.934; robust z-score, replicate 3 = 1.35; call = inactive
IFNL2 — robust z-score, replicate 1 = -0.85; robust z-score, replicate 2 = -0.631; robust z-score, replicate 3 = -0.769; call = inactive
LOC389628 (retired record) — robust z-score, replicate 1 = -1.6; robust z-score, replicate 2 = -1.79; robust z-score, replicate 3 = -1.85; call = inactive
TMEM260 — robust z-score, replicate 1 = -0.904; robust z-score, replicate 2 = -0.455; robust z-score, replicate 3 = 0.32; call = inactive
RHBDD3 — robust z-score, replicate 1 = -1.36; robust z-score, replicate 2 = -2.28; robust z-score, replicate 3 = -1.99; call = inactive
SRCIN1 — robust z-score, replicate 1 = 1.35; robust z-score, replicate 2 = 1.28; robust z-score, replicate 3 = 0.899; call = inactive

Continued; the last 2 above are carried over.
RHBDD3 — robust z-score, replicate 1 = -1.36; robust z-score, replicate 2 = -2.28; robust z-score, replicate 3 = -1.99; call = inactive
SRCIN1 — robust z-score, replicate 1 = 1.35; robust z-score, replicate 2 = 1.28; robust z-score, replicate 3 = 0.899; call = inactive
TRAPPC6B — robust z-score, replicate 1 = -0.0278; robust z-score, replicate 2 = -0.0584; robust z-score, replicate 3 = -0.796; call = inactive
AQP10 — robust z-score, replicate 1 = 1.07; robust z-score, replicate 2 = 0.519; robust z-score, replicate 3 = 0.528; call = inactive
DUSP12 — robust z-score, replicate 1 = 0.653; robust z-score, replicate 2 = 0.728; robust z-score, replicate 3 = 0.434; call = inactive
HINT2 — robust z-score, replicate 1 = -1.52; robust z-score, replicate 2 = -1.6; robust z-score, replicate 3 = -1.68; call = inactive
TP53BP2 — robust z-score, replicate 1 = -0.567; robust z-score, replicate 2 = -0.363; robust z-score, replicate 3 = -0.717; call = inactive
EVPLL — robust z-score, replicate 1 = 0.234; robust z-score, replicate 2 = 0.233; robust z-score, replicate 3 = 0.325; call = inactive
